Measured values taken from EP4741420A1, “PHARMACEUTICAL COMPOSITION FOR PREVENTING OR TREATING OBESITY COMPRISING GLP ANALOGUE AS ACTIVE INGREDIENT” (priority 2023, dated 2025).
At least one peptide structure holds a part that was inferred or is arguable (an end, a ring closure or a residue). Ends that are not written are not given here. Peptide text beside a SMILES is read from it.

Amino acid sequences for entries named in this document (tags omitted). Residues count along the entry.
UniProt P43220, 24-463: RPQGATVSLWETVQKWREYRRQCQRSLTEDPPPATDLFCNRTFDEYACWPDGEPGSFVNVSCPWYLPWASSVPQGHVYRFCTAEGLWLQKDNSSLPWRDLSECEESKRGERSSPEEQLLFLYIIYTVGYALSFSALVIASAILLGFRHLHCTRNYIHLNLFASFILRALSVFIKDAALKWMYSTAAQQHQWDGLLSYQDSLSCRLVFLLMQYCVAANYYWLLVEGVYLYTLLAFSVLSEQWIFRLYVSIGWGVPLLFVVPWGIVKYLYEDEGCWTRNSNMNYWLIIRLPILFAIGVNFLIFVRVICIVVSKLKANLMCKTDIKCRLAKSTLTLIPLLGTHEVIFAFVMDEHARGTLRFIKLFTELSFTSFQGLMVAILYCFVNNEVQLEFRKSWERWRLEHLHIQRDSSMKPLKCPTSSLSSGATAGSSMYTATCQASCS

What was measured:
[1] = molecular target: GLP-1R (Homo sapiens, UniProt P43220); assay: GLP-1 activation: cell-based cAMP assay in GLP-1R/CHO cells; conditions: for GLP-1 activity Compared to GLP-1 (Exendin-4): Example 5, relative to Exendin-4
[2] = molecular target: T1, GLP-2 (Homo sapiens, UniProt O95838); assay: GLP-2 activity, cell-based cAMP assay (same method as Example 2); conditions: Example 5, relative to GLP-2
T1 sequence (O95838 1-553): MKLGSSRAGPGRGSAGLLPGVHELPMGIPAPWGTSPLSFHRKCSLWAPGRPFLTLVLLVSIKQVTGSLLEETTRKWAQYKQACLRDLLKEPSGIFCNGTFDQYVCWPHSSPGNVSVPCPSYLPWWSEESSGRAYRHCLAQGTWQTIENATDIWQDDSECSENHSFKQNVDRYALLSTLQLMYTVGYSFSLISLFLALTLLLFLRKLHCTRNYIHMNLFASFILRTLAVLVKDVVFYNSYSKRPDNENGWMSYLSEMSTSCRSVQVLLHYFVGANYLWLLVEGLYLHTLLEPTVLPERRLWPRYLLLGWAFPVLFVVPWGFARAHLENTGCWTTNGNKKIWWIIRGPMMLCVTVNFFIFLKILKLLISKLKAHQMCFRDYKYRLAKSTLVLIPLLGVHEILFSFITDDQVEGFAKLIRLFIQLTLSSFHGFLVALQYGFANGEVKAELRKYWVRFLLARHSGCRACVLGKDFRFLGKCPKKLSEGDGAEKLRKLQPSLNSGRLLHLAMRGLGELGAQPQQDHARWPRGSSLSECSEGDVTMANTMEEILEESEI

[3] = system: C57BL/6 DIO mice; assay: Diet-induced obesity mouse model: blood/serum biochemical tests (Example 3); type: in vivo; conditions: after 4 weeks, 0.20 mg/kg/dose (dose from Table 3)
Description: Here, the body weight and food intake were measured daily.
In addition, after the experiment was completed, blood and serum samples were obtained from each mouse model, and biochemical tests were performed for blood glucose, total cholesterol, high-density lipoprotein (HDL), low-density lipoprotein (LDL), and triglycerides.

[4] = system: C57BL/6 DIO mice; assay: Diet-induced obesity mouse model: body weight and food intake (Example 3); type: in vivo; conditions: 4 weeks administration, 0.20 mg/kg/dose

Compound	GLP-1 activity Compared to GLP-1 (Exendin-4) [1]	GLP-2 activity Compared to GLP-2 [2]	Average (n=4) Relative to GLP-1 (Exendin-4) % ([1]; GLP-1R/CHO cells, cAMP, relative to Exendin-4 (Example 2))	Blood glucose [3]	High-density lipoprotein [3]	Low-density lipoprotein [3]	Toal cholesterol [3]	Triglyceride [3]	Cumulative food intake [4]	Weight [4]	Weight change (%) ([4]; compared to day 0)
CC[C@H](C)[C@H](NC(=O)[C@H](Cc1ccccc1)NC(=O)[C@H](CC(=O)O)NC(=O)[C@H](CCCNC(=N)N)NC(=O)[C@H](C)NC(=O)[C@H](C)NC(=O)[C@H](CC(C)C)NC(=O)[C@H](C)NC(=O)[C@H](CC(=O)O)NC(=O)[C@H](CC(C)C)NC(=O)[C@H](Cc1ccc(O)cc1)NC(=O)[C@@H](NC(=O)[C@H](CO)NC(=O)[C@H](CC(C)C)NC(=O)[C@H](CC(=O)O)NC(=O)[C@H](CO)NC(=O)[C@@H](NC(=O)[C@H](Cc1ccccc1)NC(=O)[C@@H](NC(=O)CNC(=O)[C@H](CCC(=O)O)NC(=O)CNC(=O)[C@@H](N)Cc1c[nH]cn1)[C@@H](C)O)[C@@H](C)O)[C@@H](C)O)C(=O)N[C@@H](CC(N)=O)C(=O)N[C@@H](Cc1c[nH]c2ccccc12)C(=O)N[C@@H](CC(C)C)C(=O)N[C@H](C(=O)N[C@@H](CCC(N)=O)C(=O)N[C@H](C(=O)N[C@@H](CCCCN)C(=O)N[C@H](C(=O)N[C@H](C(=O)N[C@@H](CC(=O)O)C(=O)N[C@@H](CCCCN)C(=O)N[C@@H](CCCCNC(=O)CC[C@H](NC(=O)CCCCCCCCCCCCCCCCC(=O)O)C(=O)O)C(=O)O)[C@@H](C)O)[C@@H](C)CC)[C@@H](C)O)[C@@H](C)CC [HU020M1] (HELM PEPTIDE1{H.G.E.G.T.F.T.S.D.L.S.T.Y.L.D.A.L.A.A.R.D.F.I.N.W.L.I.Q.T.K.I.T.D.K.K}|PEPTIDE2{[O=C(O)CCCCCCCCCCCCCCCCC(=O)[*:2]].[gGlu]}$PEPTIDE1,PEPTIDE2,35:R3-2:R2$$$V2.0)	6.3%	~ 0.02%	–	–	–	–	–	–	–	–	–
HGEGTFTSDLSTYLDALAARDFINWLIQTKITD [HU020]	171.1%	0.32%	198.9±112.0%	242.8 ± 12.5 mg/dL	95.2 ± 3.8 mg/dL	19.8 ± 7.4 mg/dL	210.8 ± 26.3 mg/dL	13.4 ± 2.9 mg/dL	78.7 ± 18.3 g	47.7 ± 3.0 g	+2.2±3.0%
